According to PubChem BioAssay AID485314 (National Center for Advancing Translational Sciences (NCATS), 2010):
Values joined by “and” are separate entries in the source; they are usually repeats but may differ in a detail not shown here. Identical values can stand only once. In all, about 340,000 compounds went through this assay and about 4,500 (1.3%) were called active. The inconclusive results got no clear call from the source; some entries with a clear call stand among them for comparison. Calls come from the whole dose curve; as a rule, active = well fitted inhibition curve with a large enough effect; inconclusive = small, poorly fitted or top-dose-only effect, or another doubt; inactive = no such curve, though single readings can be large or run the other way. Potencies of inconclusive entries are doubtful fits and often do not repeat. A structure can be active in one record and inactive in another.

target: DNA polymerase beta (Homo sapiens) (UniProt P06746); experiment: qHTS Assay for Inhibitors of DNA Polymerase Beta; conditions: Pol beta primer extension/strand displacement, fluorescence kinetic; activity change, negative = inhibition: at 114 µM (top of the series)
Summary of the method: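 Pol beta (10 nM) was preincubated with compound for 15 min at room temperature. The reaction was then started with 50 nM substrate and read immediately and after a further 10 min at room temperature.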
% is set by controls: 0 for no effect and ±100 for the full control effect; potency is the fitted concentration of half-maximal effect.

Compound | Potency | activity change, negative = inhibition
O=C(Nc1nncs1)c1cc2c(s1)CCC2 | inactive | –
O=C(OCCCOC(=O)c1ccc(O)cc1)c1ccc(O)cc1 | – | inconclusive: -32% [inhibitor]
Cc1ccc(C(=O)OCC(=O)Nc2sc3c(c2C#N)CCC3)cc1 | inconclusive: 31.6 µM [inhibitor, partial curve] | –
CCOc1cc(C(=O)NCCN2C(=O)S/C(=C\c3cccnc3)C2=O)cc(OCC)c1OCC | inconclusive: 63.1 µM [inhibitor, partial curve, poor fit] | –
CC(C)(C)C1CCc2c(C(=O)NNC(=O)/C=C/C(=O)O)csc2C1 (configuration not stated) | inactive | –
CCOC(=O)c1c(NC(=O)c2ccc(OC)c(OC)c2)sc2c1CCCCC2 | – | inconclusive: -33.9% [inhibitor]
Cc1ccc2nc(-c3ccc(NC(=O)CN4CCN(C(=O)c5ccco5)CC4)cc3)sc2c1 | active: 31.6 µM | –
Cc1ccc2nc(SCC(=O)NCc3ccco3)c(C)cc2c1 | inconclusive: 79.4 µM [inhibitor, single point] | –
O=C(Nc1ccc2ccccc2c1)c1ccc(Br)o1 | inconclusive: 39.8 µM [inhibitor, single point] | –
Cc1ccc(C(=O)NCCCNCCCN(C)C)cn1 | inconclusive: 8.91 µM [inhibitor, full curve, poor fit] | –
CCOc1ccc(/C=C/C2=NNC(=O)CC2)cc1 | inconclusive: 79.4 µM [inhibitor, single point] | –
O=C(O)CCc1ccc(S(=O)(=O)Nc2ccccc2C(=O)NCCc2ccccc2)cc1 | inactive | –
CCOC(=O)c1c(-c2ccccc2)oc2ccc(N(C(C)=O)S(=O)(=O)c3ccc(C)cc3)cc12 | inconclusive: 1 µM [inhibitor, single point] | –
O=c1cc(CN2CCOCC2)c2ccc(O)c(O)c2o1 | inconclusive: 28.2 µM [inhibitor, single point] | –
O=S(=O)(Nc1nc2ccccc2nc1N1CCN(c2ccccn2)CC1)c1ccc(Cl)cc1 | inconclusive: 56.2 µM [inhibitor, single point] | –
CCc1ccc(NS(=O)(=O)c2ccc3[nH]cc(C(=O)N(C)Cc4ccco4)c(=O)c3c2)cc1 | active: 44.7 µM | –
Cc1cc(/C=N/n2cnnc2)c(C)n1-c1ccc(Cl)cc1Cl | inconclusive: 79.4 µM [inhibitor, partial curve] | –
COc1ccc(OC)c(NC(=O)c2cc(=O)c3c(C)cc(C)cc3o2)c1 | inconclusive: 5.01 µM [inhibitor, full curve, poor fit] | –
Cc1ccc(/C=C2\C(=O)Nc3ccccc32)o1 | inconclusive: 100 µM [inhibitor, single point] | –
COc1ccc(Cl)cc1NC(=O)C(C)N1CCN(C/C=C/c2ccccc2)CC1 (configuration not stated) | inconclusive: 39.8 µM [inhibitor, single point] | –
S=c1[nH]nc(-c2cccs2)n1/N=C/c1c(Cl)cccc1Cl | inconclusive: 79.4 µM [inhibitor, partial curve] | –

Compound | Potency | activity change, negative = inhibition
O=C(O)Cc1cc(I)c(Oc2ccc(O)c(I)c2)c(I)c1 | inconclusive: 79.4 µM [inhibitor, partial curve] | –
CCOC(=O)/C=C/C(=O)Nc1ccc(S(=O)(=O)Nc2cc(C)on2)cc1 | inconclusive: 10 µM [inhibitor, partial curve] | –
Cc1cc(NC(=O)CSc2nnc(NC(=O)C3CC(=O)N(c4ccccc4C)C3)s2)no1 (configuration not stated) | inconclusive: 56.2 µM [inhibitor, partial curve] | –
O=C(O)c1ccc(COc2ccccc2/C=C2\NC(=O)N(Cc3ccc(F)cc3)C2=O)cc1 | inconclusive: 89.1 µM [inhibitor, single point] | –
CC(=O)OCC1=C(C(=O)O)N2C(=O)C(NC(=O)c3ccc(COc4cccc(Cl)c4Cl)o3)C2SC1 (configuration not stated) | active: 22.4 µM | –
COc1ccc(OC)c(Nc2nc(NCCCN(C)C)nc(N)c2[N+](=O)[O-])c1 | active: 35.5 µM | –
C=CCOc1ccc(C(=O)Nc2ccccc2C(=O)N2CCCC2)cc1 | inconclusive: 20 µM [inhibitor, full curve, poor fit] | –
COC(=O)C1CCN(c2cc(Cl)nc(N)n2)CC1 | inactive | –
COc1ccc(Cn2ccc3nc(C)c(C(=O)N4CCN(c5ccccc5OC)CC4)cc3c2=O)cc1 | inactive | –
O=C(O)Cc1ccc(O)c(O)c1 | inconclusive: 22.4 µM [inhibitor, full curve] and inconclusive: 7.94 µM [inhibitor, full curve] | –
CCOC(=O)c1ccc(NC(=S)NCc2cccnc2)cc1 | inconclusive: 89.1 µM [inhibitor, single point] | –
CCn1c(SCc2ccc(F)cc2Cl)nc(=O)c2c(C(=O)OC)cc(C3CC3)nc21 | inactive | –
COC(=O)C1=C(C)N=c2s/c(=C/c3ccoc3)c(=O)n2C1c1ccccc1 (configuration not stated) | active: 50.1 µM | –
NC(=O)CC1C(=O)N(c2ccc(F)cc2)C(=O)N1NC(=O)CCc1ccccc1 (configuration not stated) | inconclusive: 35.5 µM [inhibitor, full curve] | –
O=C(NCc1ccc(F)cc1)C1CCN(c2ncnc3c2nc2n3CCCCC2)CC1 | inactive | –
Cc1cc(C)cc(OCC(=O)Nc2cc(NC(=O)COc3cc(C)cc(C)c3)cc(C(=O)O)c2)c1 | inconclusive: 89.1 µM [inhibitor, single point] | –
COc1ccc(OC)c(NC(=O)CCc2nnc3ccc(NCc4ccco4)nn23)c1 | – | inconclusive: -79.5% [inhibitor]
c1ccc(CN2CCC3(CC2)Nc2ccccc2S3)cc1 | inconclusive: 20 µM [inhibitor, single point] | –
COc1ccc(N2CC(NC(=O)c3ccco3)CC2=O)cc1OC (configuration not stated) | inconclusive: 89.1 µM [inhibitor, single point] | –
Cc1ccc(CSc2nc(-c3ccc(C(C)(C)C)cc3)nc3cc(=O)[nH]n23)cc1 | inconclusive: 15.8 µM [inhibitor, partial curve, poor fit] | –
COc1cc(/C=C2\SC(=S)N(C(C(=O)O)c3ccccc3)C2=O)ccc1O (configuration not stated) | inconclusive: 5.01 µM [inhibitor, full curve, poor fit] | –
